# According to the supplement of paper PMC12889115:
# The list shows a part of the results. Values are raw readings; no control value is given beside them.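 In the initial screen, polymyxin B was used at a concentration that permeabilizes Salmonella's outer membrane but not its inner membrane. Maximum growth was set by DMSO wells with or without polymyxin B. Since plates varied, data were ranked per plate, and compounds giving the lowest OD600 advanced as hits.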
# System: Salmonella enterica serovar Typhimurium SL1344
# Assay: bacterial growth OD600 after 18 h with compound and polymyxin B; higher = more bacterial growth (less inhibition)
# Conditions: 50 µM, Mueller-Hinton broth
SMILES,bacterial growth OD600 (polymyxin B 1 µg/mL),bacterial growth OD600 (polymyxin B 0.75 µg/mL)
O=C(c1ccccc1OC1CCN(Cc2ncc[nH]2)CC1)N1CCCCC1,1.01,–
O=C(CCC1CCCN(C(=O)CCc2ccncc2)C1)NCc1ccccc1Cl (stereo not given),0.978,–
COCc1ccc(C(=O)Nc2ccc(-c3nc(CNC(=O)C(C)Oc4ccccc4)c(C)o3)cc2)o1 (stereo not given),–,0.355
Cc1ccc(CN2CCN(Cc3ccccc3F)C(CCO)C2)cc1 (stereo not given),1,–
O=C(Nc1ccnn1C1CCN(Cc2cc3ccccc3o2)CC1)c1ccccc1,0.821,–
COc1ccc(-c2noc(CN3CCC(CCN4CCCC4=O)CC3)n2)cc1,0.858,–
COc1cccc([C@@H](C)NC(=O)c2coc(COc3cccc(F)c3)n2)c1,0.81,–
CCS(=O)(=O)c1ncc(CN(C)Cc2ccc(C)o2)n1Cc1ccccc1,–,0.763
COC(=O)CCCNC(=O)c1csc2nc(-c3ccccc3OC)cn12,–,0.802
CCOC(=O)C1CCN(C(=O)c2cn(C(C)C)cc(C(=O)NCC3CCCCC3)c2=O)CC1,–,0.917
CCS(=O)(=O)Nc1cc(C(=O)N(C)CC(O)c2ccccc2)c2c(c1)nc(-c1ccccc1)n2C (stereo not given),–,0.806
Cc1ccc(C)c(CN2CCN(Cc3ccc(C)o3)C(CCO)C2)c1 (stereo not given),0.951,–
COc1ccc(CCN2C(=O)O[C@@H]3CN(C(=O)NC4CCCCC4)C[C@@H]32)cc1,0.84,–
COc1cc(CC2(CCC(=O)NC(C)c3cnn(-c4ccccc4)c3)CCC(=O)N2)ccc1F (stereo not given),–,0.811
CN(C(=O)c1cc(Cl)ccc1OC1CCN(C2CCCC2)CC1)C1CCOC1 (stereo not given),–,0.855
O=C(NC1CCCCCC1)c1ccc(OC2CCN(C(=O)C3CC3)CC2)cc1,1,–
O=C1N(Cc2ccc(F)cc2)CCCC1(O)CN1CCC2(CC1)OCCO2 (stereo not given),0.851,–
COc1cccc(CN2Cc3ccccc3OC(C)C2)c1OC (stereo not given),–,0.886
O=C1CCC(CCNCc2ccccc2F)N1CC1(N2CCOCC2)CCCCCC1 (stereo not given),–,0.779
C[C@@H]1CN(C2(C(=O)NCCc3cn[nH]c3)Cc3ccccc3C2)C[C@H](C)O1,–,0.776
COC(=O)C1CCN(C(=O)CC(c2ccccc2)c2ccc(OC)cc2)CC1 (stereo not given),0.558,–
CCC1CN(CCC(=O)NC(c2ccncc2)c2ccccc2C)Cc2cc(OC)ccc2O1 (stereo not given),–,0.731
CCOC(=O)C1(Cc2ccccc2F)CCCN(C(=O)c2cc(OC)cc(OC)c2)C1 (stereo not given),-0.001,–
COCCn1cnc2cc(NC(=O)C3CCCCC3)cc(C(=O)N(Cc3ccccc3)CC3CC3)c21,–,0.009
COc1cc(CN2CCOc3ccc(C(O)Cc4ccccc4)cc3C2)cc(OC)c1OC (stereo not given),–,0.608
CC(C)(O)C#Cc1ccc(CN2CCCC(CCC(=O)N3CCOCC3)C2)s1 (stereo not given),0.924,–
O=C(CCN1Cc2ccccc2OC(c2ccccc2)C1)NCc1cc(-c2ccccc2)[nH]n1 (stereo not given),–,-0.001
Cc1nc(N2CCC(C(=O)N(C)Cc3cccc4ncccc34)CC2)nc2ccc(F)cc12,–,0.001
COc1ccc(-c2cc(C)cc3c2OC(CNC(=O)C2=CCCCC2)C3)nn1 (stereo not given),–,0.005
CCS(=O)(=O)c1ncc(CN2C[C@@H]3CCC[C@H]2C3)n1CCc1ccccc1,1.21,–
